This is an account of results in patent US20020193425A1, “Cancer chemopreventative compounds and compositions and methods of treating cancers” (priority 2001, published 2002).

Bounds are passed on as bounds.

The series concerns HL-60 (human promyelocytic) cells. Briefly: HL-60 cell proliferation assay of quassinoids, [3H]thymidine incorporation. The format is cell-based. Conditions: ratio of cytotoxic IC50 over antiproliferative IC50. As for the experimental part: Induction of differentiation was determined by the ability of treated cells to produce superoxide anions (nitroblue tetrazolium (NBT)-reduction), a functional marker of mature macrophages or granulocytes. Proliferation capacity is equivalent to cell growth and was measured by incorporation of [3H]thymidine into DNA over a period of 18 h, and cytotoxic activity was evaluated by the loss of membrane integrity as shown by trypan blue exclusion. […] Although members of the brusatol and glaucarubolone series were active, when comparing members of both series that varied only in the positioning of the epoxymethano bridge, great differences were noted, as shown with yadianzolide C (5) and glaucarubolone (24), and analogues 4 (brusatol series) and 32 (glaucarubolone series).
HL-60 (human promyelocytic) cells were tested using a 4-day incubation protocol. In brief, cells in log phase (approximately 10^6 cells/mL) were diluted to […] and preincubated overnight (18 h) in 24-well plates to allow cell-growth recovery. Then, samples dissolved in DMSO were added, keeping the final DMSO concentration at 0.1% (v/v). Control cultures were treated with the same concentration of DMSO. After 4 days of incubation, the cells were analyzed to determine the percentage of cells undergoing maturation as determined by NBT reduction. Concomitantly, the effect on viability and proliferation of HL-60 cells was determined. In each experiment, 1α, 25-dihydroxyvitamin D3 (EC50=0.01 μM) and brusatol (EC50=0.07 μM) were used as reference controls. EC50 and IC50 values were calculated using 5-7 test concentrations (in duplicate), and consistent results were obtained, indicating the data reported for the related quassinoids are reliable.
(3) Cell Proliferation Assay. […] Cells were then collected on glass fiber filters (90×120 mm; Wallac, Turku, Finland) using a TOMTEC Harvester 96®.
With `CC[C@@](O)(CC(=O)O[C@@H]1C(=O)O[C@@H]2C[C@@H]3C(C)=CC(=O)[C@H](O)[C@]3(C)[C@H]3[C@]4(O)OC[C@]32[C@@H]1[C@@H](C)[C@H]4O)C(C)C` [compound 10, Peninsularinone], the selectivity index is recorded as 1.5 ± 0.4. With `CC1=CC(=O)[C@@H](O)[C@]2(C)[C@H]3[C@]4(O)OC[C@]35[C@H]([C@@H](C)[C@H]4O)[C@@H](O)C(=O)O[C@@H]5C[C@@H]12` [compound 24, glaucarubolone], the selectivity index was 3.3 ± 1.

Take `CC[C@](C)(O)C(=O)O[C@H]1C(=O)O[C@@H]2C[C@H]3C(C)=CC(=O)[C@@H](O)[C@]3(C)[C@H]3[C@@]4(O)OC[C@]32[C@@H]1[C@@H](C)[C@H]4O` [compound 25, glaucarubinone]: the selectivity index is reported as 2.1 ± 0.8. In the case of `CC1=CC(=O)[C@@H](O)[C@]2(C)[C@H]3[C@@]4(O)OC[C@@]35[C@@H](C[C@@H]12)OC(=O)C[C@H]5[C@@H](C)[C@H]4O` [compound 26, chaparrinone], the selectivity index stood at 4.3 ± 1.4.

On to samaderin B [compound 48], for which the selectivity index is reported as above 6. The result for yadanziolide C [compound 5] reads above 6.7.
